According to PMC13433802, “Structure of the NAT10 acetyltransferase and mechanism of tRNA acetylation” (Nature Communications, 2026):

Experiments:
Assay in all cases: EMSA
[1] = system: CtNAT10 K427A + CtTHUMPD1; conditions: tRNA pre-incubated with 0.75 uM THUMPD1, no difference from WT; 50 mM Hepes-KOH pH 7.6, 90 mM NaCl (Fig 1B) or 75 mM NaCl + 0.2 mg/ml BSA (Fig S4A), 12 mM KCl, 10 mM MgCl2, 1 mM DTT, 0.5 mM ATP, 0.1 mM acetyl-CoA; recombinant protein; protein details: N-terminal 6xHis,GST tag removed by TEV
[2] = system: CtNAT10 R637A + CtTHUMPD1; conditions: tRNA pre-incubated with 0.75 uM THUMPD1, no difference from WT; 50 mM Hepes-KOH pH 7.6, 90 mM NaCl (Fig 1B) or 75 mM NaCl + 0.2 mg/ml BSA (Fig S4A), 12 mM KCl, 10 mM MgCl2, 1 mM DTT, 0.5 mM ATP, 0.1 mM acetyl-CoA; recombinant protein; protein details: N-terminal 6xHis,GST tag removed by TEV
CtNAT10 WT + CtTHUMPD1 = conditions: 50 mM Hepes-KOH pH 7.6, 90 mM NaCl (Fig 1B) or 75 mM NaCl + 0.2 mg/ml BSA (Fig S4A), 12 mM KCl, 10 mM MgCl2, 1 mM DTT, 0.5 mM ATP, 0.1 mM acetyl-CoA, recombinant protein, protein details: N-terminal 6xHis,GST tag removed by TEV
[3] = biological target: T1, CtNAT10 WT (Chaetomium thermophilum) (UniProt G0S273); conditions: 0.1 mM acetyl-CoA, 50 mM Hepes-KOH pH 7.6, 90 mM NaCl (Fig 1B) or 75 mM NaCl + 0.2 mg/ml BSA (Fig S4A), 12 mM KCl, 10 mM MgCl2, 1 mM DTT, recombinant protein, residues 1-1073, protein details: N-terminal 6xHis
T1 sequence (looked up): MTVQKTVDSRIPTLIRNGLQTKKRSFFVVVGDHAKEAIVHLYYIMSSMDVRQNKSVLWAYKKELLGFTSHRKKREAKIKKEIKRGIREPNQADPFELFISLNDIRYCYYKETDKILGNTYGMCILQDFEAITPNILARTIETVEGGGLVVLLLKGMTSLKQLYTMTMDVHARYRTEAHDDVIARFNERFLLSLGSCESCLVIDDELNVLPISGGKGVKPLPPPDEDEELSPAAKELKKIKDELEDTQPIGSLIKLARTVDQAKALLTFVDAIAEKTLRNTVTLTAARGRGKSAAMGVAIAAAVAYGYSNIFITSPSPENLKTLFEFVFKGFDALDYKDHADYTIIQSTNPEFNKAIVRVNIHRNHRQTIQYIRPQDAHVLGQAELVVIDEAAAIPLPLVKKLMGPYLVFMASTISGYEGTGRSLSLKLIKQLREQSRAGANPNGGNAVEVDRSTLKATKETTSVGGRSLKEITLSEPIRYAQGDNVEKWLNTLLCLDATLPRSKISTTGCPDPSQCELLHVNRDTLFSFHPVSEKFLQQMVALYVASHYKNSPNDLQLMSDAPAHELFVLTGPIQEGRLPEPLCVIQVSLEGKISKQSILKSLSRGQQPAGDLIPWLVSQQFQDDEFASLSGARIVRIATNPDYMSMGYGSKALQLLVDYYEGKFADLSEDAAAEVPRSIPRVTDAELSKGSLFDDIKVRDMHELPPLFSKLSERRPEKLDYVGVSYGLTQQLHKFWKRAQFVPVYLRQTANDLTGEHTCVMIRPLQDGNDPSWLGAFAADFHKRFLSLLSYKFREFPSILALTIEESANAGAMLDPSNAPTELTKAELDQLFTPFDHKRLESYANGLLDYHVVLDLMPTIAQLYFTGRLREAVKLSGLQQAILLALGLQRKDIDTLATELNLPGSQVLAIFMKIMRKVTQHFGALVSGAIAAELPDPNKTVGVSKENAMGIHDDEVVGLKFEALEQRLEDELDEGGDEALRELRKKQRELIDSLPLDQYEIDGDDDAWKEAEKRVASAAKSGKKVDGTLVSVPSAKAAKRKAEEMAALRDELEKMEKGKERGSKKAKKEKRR

[4] = tRNA pre-incubated with 0.75 uM THUMPD1
[5] = NAT10 and THUMPD1 pre-assembled 1:1

Measured: binding result

GGGCGUGUAGCUCAGUUGGUAGAGCGUUCGCUUAGCAUGCGAGAGGUCCUGGGUUCGAUUCCCAGCCCGUCCA [CttRNAAla (IVT)]
binds: [1] | [2] | CtNAT10 WT + CtTHUMPD1; NAT10 and THUMPD1 pre-assembled 1:1, affinity similar to cognate | CtNAT10 WT + CtTHUMPD1; [4]

GGCAAGAUGGCCGAGCGGUCCAAGGCGCCAGGUUCAGGUCCUGGUCUCCGCAAGGGGGCGUGAGUUCGAAUCUCACUCUUGUCA [CttRNALeu (IVT)]
binds: [1] | [2] | [3]; no THUMPD1, 0.5 mM ATP | CtNAT10 WT + CtTHUMPD1; [5] | CtNAT10 WT + CtTHUMPD1; [4]

GACAACUUGGCCGAGUGGUUAAGGCGACAGACUUGAAAUCUGUUGGGUUCGCCCUCACAGGUUCGAAUCCUGUAGUUGUCG [CttRNASer (IVT)]
binds: [1] | [2] | [3]; no THUMPD1, 0.5 mM ATP | CtNAT10 WT + CtTHUMPD1; [5] | CtNAT10 WT + CtTHUMPD1; [4]

GAGGAAGUAAAAGUCGUAACAAGGUCUCCGUAGGUGAACCUGCGGAGGGAUCAU [ct-rRNA h45]
binds: [3]; 0.5 mM ATP

Construct, isoform or probe ends are uncertain for at least one entry. For part of these data: At least one verdict rests on a figure or table, not on a statement of the authors. For part of these data: Tags and fusion partners may be left off the protein sequences shown.
